Measurements taken from paper PMC10914600, “Synthesis of lipid-linked precursors of the bacterial cell wall is governed by a feedback control mechanism in Pseudomonas aeruginosa” (Nature Microbiology, 2024).
These are yes or no findings as the source states them, for the method shown. Some entries that bind do so weakly or less than the wild type.

Sequences of proteins named here, by UniProt entry; tags and fusion partners are left off. Residues count along the entry.
UniProt P0A9K9, residues 1-154: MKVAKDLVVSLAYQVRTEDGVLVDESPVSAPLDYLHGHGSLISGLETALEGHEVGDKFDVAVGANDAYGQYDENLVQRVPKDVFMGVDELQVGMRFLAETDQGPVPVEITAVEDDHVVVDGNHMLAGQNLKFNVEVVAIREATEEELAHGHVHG

Molecular target: T1, E. coli MraY(T23P) (E. coli) (UniProt P0A6W3)
T1 sequence: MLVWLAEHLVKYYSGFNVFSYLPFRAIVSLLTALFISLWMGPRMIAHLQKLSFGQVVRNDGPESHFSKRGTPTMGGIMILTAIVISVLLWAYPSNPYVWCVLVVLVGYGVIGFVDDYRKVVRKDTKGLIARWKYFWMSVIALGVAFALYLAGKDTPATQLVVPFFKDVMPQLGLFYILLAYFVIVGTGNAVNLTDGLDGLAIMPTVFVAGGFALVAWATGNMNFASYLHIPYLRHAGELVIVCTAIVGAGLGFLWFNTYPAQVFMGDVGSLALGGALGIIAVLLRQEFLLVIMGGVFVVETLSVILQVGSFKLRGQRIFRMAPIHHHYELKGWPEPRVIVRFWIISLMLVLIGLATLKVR
Experiment: cryo-EM structure; YES(T23P) complex (EcMraY(T23P), protein E, SlyD) co-expressed and purified in DDM; 5 mg/ml in 10 mM HEPES pH 7.5, 75 mM NaCl, 2% glycerol, 5 mM βME, 0.03% DDM, 1 mM E. coli total lipid extract; focused refinement of MraY alone after particle subtraction, final map 3.8 Å; both purified

Substance: E. coli chaperone SlyD (SlyD_(1–154)) (from UniProt P0A9K9 1-154) (domain or fragment)
- binding: binds
